Results are given in words; binding and its absence hold for the method and conditions named. In cells and extracts the contact can be indirect. One block for each molecule: values may come before it.
Experiments:
[1] = biological target: rhodopsin (mouse (endogenous in retina)) (UniProt P15409); experiment: co-IP; WT (C57BL/6J) mouse retinal membranes solubilized in the mild detergent dodecyl maltoside in PBS; anti-rhodopsin antibody 1D4 overnight at 4°C, protein A/G magnetic beads; eluate analysed by Western blotting; controls: non-immune mouse IgG, 1D4 epitope-blocking peptide (2 mM)
[2] = biological target: retinal guanylate cyclase 1 (mouse (endogenous in retina)) (UniProt P52785); experiment: as above
[3] = biological target: T1, rhodopsin (mouse (endogenous in retina)), P15409; experiment: as above; details: remark: other sources report otherwise
T1 chain: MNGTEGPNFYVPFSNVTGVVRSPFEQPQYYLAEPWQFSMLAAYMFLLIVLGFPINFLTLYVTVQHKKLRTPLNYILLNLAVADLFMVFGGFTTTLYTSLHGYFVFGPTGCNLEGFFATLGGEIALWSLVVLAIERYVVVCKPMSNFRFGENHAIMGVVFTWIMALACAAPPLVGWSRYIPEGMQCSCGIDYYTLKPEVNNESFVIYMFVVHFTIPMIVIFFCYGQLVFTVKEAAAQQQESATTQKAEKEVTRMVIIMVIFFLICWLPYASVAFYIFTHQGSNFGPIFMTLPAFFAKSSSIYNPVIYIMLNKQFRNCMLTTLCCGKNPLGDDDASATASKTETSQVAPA

Amino acid sequences for entries named in this document (tags omitted). Residues count along the entry.
UniProt P52785, residues 55-1108: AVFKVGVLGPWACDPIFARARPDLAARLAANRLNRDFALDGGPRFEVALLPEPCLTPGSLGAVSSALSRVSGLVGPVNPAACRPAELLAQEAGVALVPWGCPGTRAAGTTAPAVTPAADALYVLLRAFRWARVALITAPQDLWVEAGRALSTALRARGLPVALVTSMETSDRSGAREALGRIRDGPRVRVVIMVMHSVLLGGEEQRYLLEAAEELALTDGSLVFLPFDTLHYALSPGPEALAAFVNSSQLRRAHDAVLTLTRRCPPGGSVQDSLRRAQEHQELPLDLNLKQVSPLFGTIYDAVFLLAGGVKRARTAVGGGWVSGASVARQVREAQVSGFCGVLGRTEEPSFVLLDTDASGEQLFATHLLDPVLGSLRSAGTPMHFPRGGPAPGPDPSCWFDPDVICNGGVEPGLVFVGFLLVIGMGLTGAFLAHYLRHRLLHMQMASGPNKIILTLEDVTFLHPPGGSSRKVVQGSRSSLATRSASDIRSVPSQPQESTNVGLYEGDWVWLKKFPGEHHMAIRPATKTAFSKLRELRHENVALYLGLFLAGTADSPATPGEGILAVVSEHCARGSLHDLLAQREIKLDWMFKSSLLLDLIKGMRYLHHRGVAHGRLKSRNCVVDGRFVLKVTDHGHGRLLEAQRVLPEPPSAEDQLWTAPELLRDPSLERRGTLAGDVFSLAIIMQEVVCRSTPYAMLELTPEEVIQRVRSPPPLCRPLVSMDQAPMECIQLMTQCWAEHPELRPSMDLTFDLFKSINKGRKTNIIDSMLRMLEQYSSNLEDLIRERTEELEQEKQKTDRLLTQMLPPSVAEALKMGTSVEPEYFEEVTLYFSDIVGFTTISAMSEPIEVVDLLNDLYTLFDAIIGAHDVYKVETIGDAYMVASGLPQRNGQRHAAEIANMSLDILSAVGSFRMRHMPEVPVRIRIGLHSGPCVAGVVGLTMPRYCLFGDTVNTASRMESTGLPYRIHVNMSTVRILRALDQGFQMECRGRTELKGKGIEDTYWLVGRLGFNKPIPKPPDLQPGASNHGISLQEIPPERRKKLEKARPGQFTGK
UniProt O54946: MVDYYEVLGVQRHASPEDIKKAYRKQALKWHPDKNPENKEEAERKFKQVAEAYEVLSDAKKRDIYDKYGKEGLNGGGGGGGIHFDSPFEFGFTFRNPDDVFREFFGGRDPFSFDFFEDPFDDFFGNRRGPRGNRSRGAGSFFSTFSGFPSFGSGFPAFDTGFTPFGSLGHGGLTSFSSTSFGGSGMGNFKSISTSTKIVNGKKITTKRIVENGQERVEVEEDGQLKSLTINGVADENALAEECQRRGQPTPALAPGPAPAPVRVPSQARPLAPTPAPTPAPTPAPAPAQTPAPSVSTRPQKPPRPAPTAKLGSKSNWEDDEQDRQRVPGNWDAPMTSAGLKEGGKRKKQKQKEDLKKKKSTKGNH

[4] = biological target: T1, rhodopsin (mouse (endogenous in …)); experiment: co-IP; as a1, but retinal membranes solubilized in Triton X-100 (for GC-1 also at an increased concentration of dodecyl maltoside); anti-rhodopsin antibody 1D4, protein A/G beads; Western blotting; details: remark: other sources report otherwise

binding [1]: no binding
binding [2]: no binding
Molecule: DnaJB6 (from UniProt O54946 1-365)

binding [3]: no binding
binding [4]: no binding
B1: peripherin, P15499 1-346 (protein)
chain: MALLKVKFDQKKRVKLAQGLWLMNWLSVLAGIVLFSLGLFLKIELRKRSEVMNNSESHFVPNSLIGVGVLSCVFNSLAGKICYDALDPAKYAKWKPWLKPYLAVCIFFNVILFLVALCCFLLRGSLESTLAYGLKNGMKYYRDTDTPGRCFMKKTIDMLQIEFKCCGNNGFRDWFEIQWISNRYLDFSSKEVKDRIKSNVDGRYLVDGVPFSCCNPSSPRPCIQYQLTNNSAHYSYDHQTEELNLWLRGCRAALLNYYSSLMNSMGVVTLLVWLFEVSITAGLRYLHTALESVSNPEDPECESEGWLLEKSVPETWKAFLESFKKLGKSNQVEAEGADAGPAPEAG

Reference: article PMC4709261, “Guanylate cyclase 1 relies on rhodopsin for intracellular stability and ciliary trafficking” (eLife, 2015)
